Source: paper doi:10.1101/2023.11.29.569176
These are yes or no findings as the source states them, for the method shown. Binding can be weak; no strength is given. Sequences can lack the tags named with a protein.

Biological target: RomR-PopZ^H3H4-GFP bait fusion protein (Bdellovibrio bacteriovorus)
Experiment: POLAR

B1: SgmX (Bd2492) fused to mScarlet (protein, UniProt Q6MKB3 1-353)
chain: MSTYIELEIQNLLNQGSDQNIDLAEVATRLVSSIESSPDHFTLDNITALSRFLIQSGNELVLVEFVLRHLENESFPIPWPYFLEALSAFSEELDEKSVRALIDGIEEDGAQEEASRSLALRQTIQSLGEWRSNRKYKIHKDYLNNKRLLLDQLITLRTQQLYEQEKSLLARLQKLYPGDSDIRREVNEHKQRYALEILSRRTPRSRGVKTEDFSPKDPETEQALQVLMQSMHEHAETDPSMAFDFAIAAYMLESYEDALSLLSFSDESETLIWFRLEVLLKCRRFVELLTDLAKVEVVFAHEPETFFATAYLRAQALWGLGQKHTAIEVMEGLLAARPHYRAASALLSIWGGQ
Which binding does the source give for B1 here?
Its binding is “binds”.
